These are yes or no findings as the source states them, for the method shown. Binding seen in cells or lysates may run through a third protein. For some of these results: A result given as binding can be weak or reduced; the word gives no strength.
T1: CeHop (STI-1) (C. elegans (endogenous in wild-type animals)) (UniProt O16259)
T1 sequence: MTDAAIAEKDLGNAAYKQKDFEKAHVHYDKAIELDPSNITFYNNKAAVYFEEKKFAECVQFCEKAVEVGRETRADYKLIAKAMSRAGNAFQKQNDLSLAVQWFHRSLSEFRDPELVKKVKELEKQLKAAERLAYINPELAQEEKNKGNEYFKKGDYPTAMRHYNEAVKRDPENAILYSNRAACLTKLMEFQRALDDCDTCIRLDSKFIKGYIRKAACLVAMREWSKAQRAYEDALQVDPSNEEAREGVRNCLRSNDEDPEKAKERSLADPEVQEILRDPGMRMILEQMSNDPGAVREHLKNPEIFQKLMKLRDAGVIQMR


Assays:
[1] = target: CeAha1 (C01G10.8) (C. elegans (endogenous in wild-type animals)) (UniProt Q93168); assay: co-IP; total lysate of age-synchronized wild-type C. elegans in RIPA buffer with protease inhibitors, 4°C; anti-CeHop or anti-CeAha1 antibodies, Protein A/G PLUS-Agarose beads, three washes in RIPA buffer; western blot with anti-CeHop, anti-CeAha1, anti-CeHsp90 or anti-UNC-45 antibodies
[2] = target: T1, CeHop (STI-1) (C. elegans (endogenous in wild-type animals)); assay: as above

Molecule | binding [1] | binding [2]
CeHsp90 (DAF-21) (from UniProt Q18688 1-702) | binds | 
UNC-45 (protein, UniProt G5EG62 1-961) MVARVQTAEEIRDEGNAAVKDQDYIKADELYTEALQLTTDEDKALRPVLYRNRAMARLKRDDFEGAQSDCTKALEFDGADVKALFRRSLAREQLGNVGPAFQDAKEALRLSPNDKGIVEVLQRLVKANNDKIKQTTSLANKVTDMEKLAFRGEAKDTEQKMTALNNLLVLCRESESGATGVWNQGALVPFVLNLINDASENEEVTVTAIRILDETIKNSVRCMKFLAMHDPDGPKSVRFVCRLMCKKSTKDFVDATGILVQRVFNAMAKMDRQKEMKPDPEVAEANKIWIIRVLLELQEMLQDPKVGAVQRETCIDLFLKNLMHMDGGIPRGWSWKFVEERGLLALLDVASQIPELCEYPVSAETRQHVAICLQRLEEDMVFDTKRTIFKEKVDMFFNALISRCTNDDEGHKYRIKLSCFLITMLQGPVDIGINLITNDQLTPIMLEMAASQDHLMQGIAAELIVATVSKHERAINMLKVGIPVLRALYDSEDPTVKVRALVGLCKIGAAGGDDISKATMKEEAVISLAKTCKKFLLETEKYSVDIRRYACEGLSYLSLDADVKEWIVDDSLLLKALVLLAKKAGALCVYTLATIYANLSNAFEKPKVDEEMVKLAQFAKHHVPETHPKDTEEYVEKRVRALVEEGAVPACVAVSKTESKNALELIARSLLAFAEYEDLRGRIIAEGGTVLCLRLTKEASGEGKIKAGHAIAKLGAKADPMISFPGQRAYEVVKPLCDLLHPDVEGKANYDSLLTLTNLASVSDSIRGRILKEKAIPKIEEFWFMTDHEHLRAAAAELLLNLLFFEKFYEETVAPGTDRLKLWVLYSAEVEEERLSRASAAGFAILTEDENACARIMDEIKSWPEVFKDIAMHEDAETQRRGLMGIANIMHSSNKLCSEIVSSEVFRVLVAVTKLGTINQERAGSTEQAKRGLEAAEKFGLIKATDREIYERENQMSTIQE | no binding | 

Next, values leading:

binding [1] | binding [2] | Molecule
 | no binding | CeAha1 (C01G10.8) (from UniProt Q93168)
no binding |  | CeHop (STI-1) (protein, UniProt O16259 1-320) MTDAAIAEKDLGNAAYKQKDFEKAHVHYDKAIELDPSNITFYNNKAAVYFEEKKFAECVQFCEKAVEVGRETRADYKLIAKAMSRAGNAFQKQNDLSLAVQWFHRSLSEFRDPELVKKVKELEKQLKAAERLAYINPELAQEEKNKGNEYFKKGDYPTAMRHYNEAVKRDPENAILYSNRAACLTKLMEFQRALDDCDTCIRLDSKFIKGYIRKAACLVAMREWSKAQRAYEDALQVDPSNEEAREGVRNCLRSNDEDPEKAKERSLADPEVQEILRDPGMRMILEQMSNDPGAVREHLKNPEIFQKLMKLRDAGVIQMR

— PMC4428482
